Results are given in words; binding and its absence hold for the method and conditions named. In cells and extracts the contact can be indirect. Some entries that bind do so weakly or less than the wild type.
How the values were obtained:
[1] = target: endogenous SAG (H1299 cells) (human (endogenous in H1299)) (UniProt Q9UBF6); experiment: co-IP; endogenous proteins; H1299 whole cell extracts, untreated or 10 uM MG132 for 4 hrs; pre-cleared, overnight at 4 C with antibody against NEDD4-1 or SAG, IgG control; Western blotting
[2] = target: FLAG-SAG (Sensitive to apoptosis gene, full length) (UniProt Q9UBF6); experiment: co-IP; 293 cells transiently transfected with FLAG-SAG or FLAG-ROC1 (pCDNA3.1 vector control); lysates immunoprecipitated with FLAG antibody/beads, blot for endogenous NEDD4-1
[3] = target: endogenous NEDD4-1 (H1299 cells) (human (endogenous in H1299)) (UniProt P46934); experiment: co-IP; endogenous proteins; H1299 whole cell extracts, untreated or 10 uM MG132 for 4 hrs; pre-cleared, overnight at 4 C with antibody against NEDD4-1 or SAG, IgG control; Western blotting

Amino acid sequences for entries named in this document (tags omitted).
UniProt Q9UBF6: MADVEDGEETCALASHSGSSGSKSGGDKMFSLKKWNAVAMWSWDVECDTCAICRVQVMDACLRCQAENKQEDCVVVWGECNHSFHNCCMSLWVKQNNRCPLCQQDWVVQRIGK
UniProt P46934: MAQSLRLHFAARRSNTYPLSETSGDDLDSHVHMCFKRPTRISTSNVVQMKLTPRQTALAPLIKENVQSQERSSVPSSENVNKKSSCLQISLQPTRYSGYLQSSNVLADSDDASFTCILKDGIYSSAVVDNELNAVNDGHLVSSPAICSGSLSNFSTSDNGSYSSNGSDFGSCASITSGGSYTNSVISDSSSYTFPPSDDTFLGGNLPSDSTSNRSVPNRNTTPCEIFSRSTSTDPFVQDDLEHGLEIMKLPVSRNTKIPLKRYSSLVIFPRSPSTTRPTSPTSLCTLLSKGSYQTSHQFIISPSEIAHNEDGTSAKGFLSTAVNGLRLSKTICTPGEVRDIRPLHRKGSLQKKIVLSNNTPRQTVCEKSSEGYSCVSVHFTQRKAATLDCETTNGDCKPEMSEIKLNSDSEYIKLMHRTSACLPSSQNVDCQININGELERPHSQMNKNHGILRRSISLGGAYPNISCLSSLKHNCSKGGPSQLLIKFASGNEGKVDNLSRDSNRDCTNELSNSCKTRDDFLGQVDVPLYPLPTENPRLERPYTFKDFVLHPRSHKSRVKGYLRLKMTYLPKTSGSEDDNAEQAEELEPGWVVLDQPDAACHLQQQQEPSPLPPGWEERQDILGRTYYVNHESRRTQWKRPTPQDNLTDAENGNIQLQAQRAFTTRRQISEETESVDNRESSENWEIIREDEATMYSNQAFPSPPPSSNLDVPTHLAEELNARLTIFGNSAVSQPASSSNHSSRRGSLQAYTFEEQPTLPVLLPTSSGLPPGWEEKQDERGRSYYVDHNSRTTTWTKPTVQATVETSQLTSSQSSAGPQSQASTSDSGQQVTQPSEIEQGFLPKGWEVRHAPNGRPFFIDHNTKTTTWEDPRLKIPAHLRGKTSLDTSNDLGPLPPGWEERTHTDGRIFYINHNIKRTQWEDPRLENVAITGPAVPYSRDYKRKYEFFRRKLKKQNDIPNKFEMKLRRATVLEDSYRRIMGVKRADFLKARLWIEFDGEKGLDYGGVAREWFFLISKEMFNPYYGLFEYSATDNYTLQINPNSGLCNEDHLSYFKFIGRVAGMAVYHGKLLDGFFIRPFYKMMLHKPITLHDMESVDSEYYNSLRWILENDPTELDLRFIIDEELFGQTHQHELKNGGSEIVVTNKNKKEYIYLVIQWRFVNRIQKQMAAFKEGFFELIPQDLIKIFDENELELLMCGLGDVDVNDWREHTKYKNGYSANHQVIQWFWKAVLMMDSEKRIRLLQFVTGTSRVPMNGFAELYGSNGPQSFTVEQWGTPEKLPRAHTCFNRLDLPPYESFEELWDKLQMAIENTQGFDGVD
UniProt Q93034: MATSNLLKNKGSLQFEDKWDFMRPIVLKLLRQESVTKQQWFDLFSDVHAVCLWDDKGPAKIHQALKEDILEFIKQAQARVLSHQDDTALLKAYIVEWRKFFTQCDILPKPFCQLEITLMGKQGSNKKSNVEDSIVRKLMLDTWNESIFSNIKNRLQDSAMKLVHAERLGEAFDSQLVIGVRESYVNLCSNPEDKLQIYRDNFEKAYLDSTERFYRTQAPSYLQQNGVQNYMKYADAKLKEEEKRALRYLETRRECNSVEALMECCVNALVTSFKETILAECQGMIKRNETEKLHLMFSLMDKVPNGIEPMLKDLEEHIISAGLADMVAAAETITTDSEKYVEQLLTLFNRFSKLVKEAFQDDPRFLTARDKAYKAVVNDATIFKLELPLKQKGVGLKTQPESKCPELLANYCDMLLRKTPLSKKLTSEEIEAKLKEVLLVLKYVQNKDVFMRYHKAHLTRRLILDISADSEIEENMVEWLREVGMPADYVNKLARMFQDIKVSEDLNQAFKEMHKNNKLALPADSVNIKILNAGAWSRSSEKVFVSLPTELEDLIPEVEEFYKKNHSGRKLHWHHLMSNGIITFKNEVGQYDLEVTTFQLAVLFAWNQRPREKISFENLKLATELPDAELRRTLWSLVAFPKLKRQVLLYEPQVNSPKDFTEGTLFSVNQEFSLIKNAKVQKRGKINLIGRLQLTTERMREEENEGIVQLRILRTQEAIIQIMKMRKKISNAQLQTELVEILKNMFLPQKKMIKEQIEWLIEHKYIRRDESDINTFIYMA

In the case of “endogenous NEDD4-1 (H1299 cells) (from UniProt P46934 1-1319)”, the binding [1] is reported as “binds”.

With “endogenous NEDD4-1 (293 cells) (from UniProt P46934 1-1319)” the binding [2] was “binds”.

“endogenous SAG (H1299 cells) (from UniProt Q9UBF6 1-113)” was tested, and the binding [3] was “binds”.

With “endogenous CUL-5 (H1299 cells) (from UniProt Q93034 1-780)” the binding [1] was “binds”.

Reference: PMC4196160
